Data on 1 substance can be found in publication PMC7545097, “Mapping the native interaction surfaces of PREP1 with PBX1 by cross-linking mass-spectrometry and mutagenesis” (Scientific Reports, 2020).

By UniProt entry, the sequences of proteins in these tests, tags left out. Where a name states a change or a piece, a line headed by the entry shows the natural chain unless it says otherwise.
UniProt P55347: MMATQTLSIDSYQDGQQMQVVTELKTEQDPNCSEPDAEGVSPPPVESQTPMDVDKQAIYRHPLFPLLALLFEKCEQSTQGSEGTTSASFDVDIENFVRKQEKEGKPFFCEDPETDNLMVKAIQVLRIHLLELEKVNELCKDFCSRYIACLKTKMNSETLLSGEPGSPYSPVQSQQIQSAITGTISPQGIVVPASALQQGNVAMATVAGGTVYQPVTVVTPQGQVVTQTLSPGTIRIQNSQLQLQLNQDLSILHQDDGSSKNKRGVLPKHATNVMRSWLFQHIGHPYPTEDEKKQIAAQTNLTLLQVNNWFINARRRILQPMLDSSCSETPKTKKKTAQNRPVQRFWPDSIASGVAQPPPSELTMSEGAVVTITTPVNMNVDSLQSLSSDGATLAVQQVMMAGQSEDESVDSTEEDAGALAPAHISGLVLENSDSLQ

This experiment concerns the target T1, PBX1, endogenous in A549 cells (human (endogenous in A549)) (UniProt P40424).
T1 sequence: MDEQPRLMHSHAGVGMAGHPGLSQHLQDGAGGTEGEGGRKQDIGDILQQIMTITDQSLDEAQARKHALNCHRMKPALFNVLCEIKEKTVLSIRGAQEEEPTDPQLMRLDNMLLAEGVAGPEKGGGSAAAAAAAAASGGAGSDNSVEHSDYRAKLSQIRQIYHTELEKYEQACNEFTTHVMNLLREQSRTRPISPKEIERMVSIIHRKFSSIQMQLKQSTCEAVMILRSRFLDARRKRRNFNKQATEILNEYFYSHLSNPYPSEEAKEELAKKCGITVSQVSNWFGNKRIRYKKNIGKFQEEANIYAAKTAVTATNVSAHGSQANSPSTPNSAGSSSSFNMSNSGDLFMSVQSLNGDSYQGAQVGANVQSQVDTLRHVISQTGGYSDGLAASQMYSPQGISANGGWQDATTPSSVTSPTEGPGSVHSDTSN
Briefly: proximity ligation; in situ PLA (Duolink) in fixed A549 cells expressing PREP1-GFP constructs; anti-PBX1 and anti-GFP antibodies; nuclear and cytoplasmic foci counted.

These are yes or no findings as the source states them, for the method shown. In cells and extracts the contact can be indirect. Binding calls can cover weak binding; strength is not graded here.

Regarding PREP1-GFP ΔHD (from UniProt P55347), the binding entry is listed as “binds”.
